Laboratory results reported in article PMC10394019.
These are yes or no findings as the source states them, for the method shown. In cells and extracts the contact can be indirect. Some results given as binding are weak or reduced against the parent protein; the word gives no strength.

Sequences of proteins named here, by UniProt entry; tags and fusion partners are left off.
UniProt Q9WTX6: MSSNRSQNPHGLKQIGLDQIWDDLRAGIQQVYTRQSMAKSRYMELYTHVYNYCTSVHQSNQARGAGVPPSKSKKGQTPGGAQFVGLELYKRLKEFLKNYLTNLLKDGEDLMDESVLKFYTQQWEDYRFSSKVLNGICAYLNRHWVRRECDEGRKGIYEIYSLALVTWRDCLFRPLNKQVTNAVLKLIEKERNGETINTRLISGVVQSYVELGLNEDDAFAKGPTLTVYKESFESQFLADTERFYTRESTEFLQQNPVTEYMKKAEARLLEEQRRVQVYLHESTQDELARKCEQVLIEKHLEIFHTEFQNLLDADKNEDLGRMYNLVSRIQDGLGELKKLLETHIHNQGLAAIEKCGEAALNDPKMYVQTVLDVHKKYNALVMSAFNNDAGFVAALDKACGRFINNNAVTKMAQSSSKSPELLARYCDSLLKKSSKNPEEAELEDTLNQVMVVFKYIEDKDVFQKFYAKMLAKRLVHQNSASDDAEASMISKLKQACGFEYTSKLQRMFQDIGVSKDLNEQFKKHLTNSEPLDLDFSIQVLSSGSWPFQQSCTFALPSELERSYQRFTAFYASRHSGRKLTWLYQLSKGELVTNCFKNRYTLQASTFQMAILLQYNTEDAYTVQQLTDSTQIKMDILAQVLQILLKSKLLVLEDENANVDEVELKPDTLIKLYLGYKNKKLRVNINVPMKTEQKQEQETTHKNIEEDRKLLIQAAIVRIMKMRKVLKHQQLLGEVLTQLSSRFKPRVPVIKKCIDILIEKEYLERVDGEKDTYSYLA
UniProt Q13616: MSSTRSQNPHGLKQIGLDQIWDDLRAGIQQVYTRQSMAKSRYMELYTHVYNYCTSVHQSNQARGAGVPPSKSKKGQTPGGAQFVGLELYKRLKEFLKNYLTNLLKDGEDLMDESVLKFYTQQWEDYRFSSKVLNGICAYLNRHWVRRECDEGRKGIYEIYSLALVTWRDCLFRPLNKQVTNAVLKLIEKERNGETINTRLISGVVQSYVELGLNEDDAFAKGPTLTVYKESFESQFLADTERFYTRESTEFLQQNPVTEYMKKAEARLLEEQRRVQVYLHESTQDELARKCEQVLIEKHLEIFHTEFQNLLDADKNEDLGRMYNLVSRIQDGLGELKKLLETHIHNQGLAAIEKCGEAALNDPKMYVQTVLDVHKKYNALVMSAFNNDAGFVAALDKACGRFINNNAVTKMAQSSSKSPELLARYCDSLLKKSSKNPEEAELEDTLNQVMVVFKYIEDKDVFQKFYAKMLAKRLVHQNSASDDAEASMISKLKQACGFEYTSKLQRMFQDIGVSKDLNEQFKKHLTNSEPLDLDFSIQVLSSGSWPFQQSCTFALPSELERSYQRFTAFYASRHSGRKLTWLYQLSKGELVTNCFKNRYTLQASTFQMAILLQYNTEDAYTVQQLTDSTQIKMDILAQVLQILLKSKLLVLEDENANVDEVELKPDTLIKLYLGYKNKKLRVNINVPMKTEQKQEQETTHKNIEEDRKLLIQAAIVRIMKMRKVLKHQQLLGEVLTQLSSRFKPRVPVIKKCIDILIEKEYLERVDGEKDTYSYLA

T1: F-box only protein 42 (FBXO42) (mouse (endogenous in AML12 and mouse liver)) (UniProt Q6PDJ6)
T1 sequence: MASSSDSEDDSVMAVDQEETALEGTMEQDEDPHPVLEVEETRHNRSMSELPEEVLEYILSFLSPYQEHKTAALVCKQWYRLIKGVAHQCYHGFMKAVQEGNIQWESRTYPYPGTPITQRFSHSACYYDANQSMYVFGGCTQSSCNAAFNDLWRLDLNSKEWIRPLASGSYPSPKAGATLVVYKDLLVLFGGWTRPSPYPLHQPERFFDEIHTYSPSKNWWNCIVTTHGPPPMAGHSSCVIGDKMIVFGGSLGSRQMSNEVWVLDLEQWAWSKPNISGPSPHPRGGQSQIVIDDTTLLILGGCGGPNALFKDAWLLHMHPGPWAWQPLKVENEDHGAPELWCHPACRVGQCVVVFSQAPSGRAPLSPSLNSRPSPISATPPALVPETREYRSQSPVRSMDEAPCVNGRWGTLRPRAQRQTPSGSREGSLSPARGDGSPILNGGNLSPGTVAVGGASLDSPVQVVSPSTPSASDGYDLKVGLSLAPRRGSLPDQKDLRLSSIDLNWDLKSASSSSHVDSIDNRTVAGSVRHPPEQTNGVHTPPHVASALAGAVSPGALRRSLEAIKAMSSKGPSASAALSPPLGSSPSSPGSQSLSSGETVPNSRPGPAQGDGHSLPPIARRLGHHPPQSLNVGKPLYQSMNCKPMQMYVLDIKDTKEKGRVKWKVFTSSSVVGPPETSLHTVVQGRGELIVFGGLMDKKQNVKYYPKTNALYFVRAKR


Legend:
[1] = biological target: Cullin1 (mouse (endogenous in AML12 and mouse liver)) (UniProt Q9WTX6); assay: co-IP; lysates of AML12 or THLE-2 cells, NC or siCAND1, after PA treatment; immunoprecipitated with anti-Cullin1 antibody, immunoblotted for FBXO42 and ACAA2
[2] = biological target: Cullin1 (mouse (endogenous in AML12 and mouse liver)) (UniProt Q9WTX6); assay: co-IP; liver lysates of WT, CAND1 cKO and CAND1 cKI mice after 16 weeks of NC or HFD feeding; immunoprecipitated with anti-ACAA2/Cullin1/FBXO42 antibodies and beads at 4 °C overnight, washed three times with lysis buffer, immunoblotted for ACAA2/FBXO42/Cullin1
[3] = biological target: T1, F-box only protein 42 (FBXO42) (mouse (endogenous in AML12 and mouse liver)); assay: as above
[4] = biological target: Cullin1 (human (endogenous in L02 and THLE-2)) (UniProt Q13616); assay: co-IP; lysates of AML12 or THLE-2 cells, NC or siCAND1, after PA treatment; immunoprecipitated with anti-Cullin1 antibody, immunoblotted for FBXO42 and ACAA2

binding [1] | binding [2] | binding [3] | binding [4] | Binder
binds | binds | binds |  | acetyl-CoA acyltransferase 2 (ACAA2) (enzyme, UniProt Q8BWT1 1-397) MALLRGVFIVAAKRTPFGAYGGLLKDFSATDLTEFAARAALSAGKVPPETIDSVIVGNVMQSSSDAAYLARHVGLRVGVPTETGALTLNRLCGSGFQSIVSGCQEICSKDAEVVLCGGTESMSQSPYCVRNVRFGTKFGLDLKLEDTLWAGLTDQHVKLPMGMTAENLAAKYNISREDCDRYALQSQQRWKAANEAGYFNEEMAPIEVKTKKGKQTMQVDEHARPQTTLEQLQKLPSVFKKDGTVTAGNASGVSDGAGAVIIASEDAVKKHNFTPLARVVGYFVSGCDPTIMGIGPVPAINGALKKAGLSLKDMDLIDVNEAFAPQFLSVQKALDLDPSKTNVSGGAIALGHPLGGSGSRITAHLVHELRRRGGKYAVGSACIGGGQGIALIIQNTA
binds | binds |  | binds | F-box only protein 42 (FBXO42) (protein, UniProt Q6PDJ6 1-717) MASSSDSEDDSVMAVDQEETALEGTMEQDEDPHPVLEVEETRHNRSMSELPEEVLEYILSFLSPYQEHKTAALVCKQWYRLIKGVAHQCYHGFMKAVQEGNIQWESRTYPYPGTPITQRFSHSACYYDANQSMYVFGGCTQSSCNAAFNDLWRLDLNSKEWIRPLASGSYPSPKAGATLVVYKDLLVLFGGWTRPSPYPLHQPERFFDEIHTYSPSKNWWNCIVTTHGPPPMAGHSSCVIGDKMIVFGGSLGSRQMSNEVWVLDLEQWAWSKPNISGPSPHPRGGQSQIVIDDTTLLILGGCGGPNALFKDAWLLHMHPGPWAWQPLKVENEDHGAPELWCHPACRVGQCVVVFSQAPSGRAPLSPSLNSRPSPISATPPALVPETREYRSQSPVRSMDEAPCVNGRWGTLRPRAQRQTPSGSREGSLSPARGDGSPILNGGNLSPGTVAVGGASLDSPVQVVSPSTPSASDGYDLKVGLSLAPRRGSLPDQKDLRLSSIDLNWDLKSASSSSHVDSIDNRTVAGSVRHPPEQTNGVHTPPHVASALAGAVSPGALRRSLEAIKAMSSKGPSASAALSPPLGSSPSSPGSQSLSSGETVPNSRPGPAQGDGHSLPPIARRLGHHPPQSLNVGKPLYQSMNCKPMQMYVLDIKDTKEKGRVKWKVFTSSSVVGPPETSLHTVVQGRGELIVFGGLMDKKQNVKYYPKTNALYFVRAKR
 |  |  | binds | acetyl-CoA acyltransferase 2 (ACAA2) (enzyme, UniProt P42765 1-397) MALLRGVFVVAAKRTPFGAYGGLLKDFTATDLSEFAAKAALSAGKVSPETVDSVIMGNVLQSSSDAIYLARHVGLRVGIPKETPALTINRLCGSGFQSIVNGCQEICVKEAEVVLCGGTESMSQAPYCVRNVRFGTKLGSDIKLEDSLWVSLTDQHVQLPMAMTAENLAVKHKISREECDKYALQSQQRWKAANDAGYFNDEMAPIEVKTKKGKQTMQVDEHARPQTTLEQLQKLPPVFKKDGTVTAGNASGVADGAGAVIIASEDAVKKHNFTPLARIVGYFVSGCDPSIMGIGPVPAISGALKKAGLSLKDMDLVEVNEAFAPQYLAVERSLDLDISKTNVNGGAIALGHPLGGSGSRITAHLVHELRRRGGKYAVGSACIGGGQGIAVIIQSTA
